This note sets out measurements from paper PMC11077360.

The chains behind the UniProt entries cited, without tags or fusion partners.
UniProt Q15388: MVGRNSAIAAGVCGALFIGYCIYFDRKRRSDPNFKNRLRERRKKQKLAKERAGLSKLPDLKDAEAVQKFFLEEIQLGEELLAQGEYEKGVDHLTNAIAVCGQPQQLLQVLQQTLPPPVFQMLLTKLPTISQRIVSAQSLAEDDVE

In the experiment the target is T1, FLAG-tagged MTUS1/ATIP1 (human) (UniProt Q9ULD2).
T1 sequence: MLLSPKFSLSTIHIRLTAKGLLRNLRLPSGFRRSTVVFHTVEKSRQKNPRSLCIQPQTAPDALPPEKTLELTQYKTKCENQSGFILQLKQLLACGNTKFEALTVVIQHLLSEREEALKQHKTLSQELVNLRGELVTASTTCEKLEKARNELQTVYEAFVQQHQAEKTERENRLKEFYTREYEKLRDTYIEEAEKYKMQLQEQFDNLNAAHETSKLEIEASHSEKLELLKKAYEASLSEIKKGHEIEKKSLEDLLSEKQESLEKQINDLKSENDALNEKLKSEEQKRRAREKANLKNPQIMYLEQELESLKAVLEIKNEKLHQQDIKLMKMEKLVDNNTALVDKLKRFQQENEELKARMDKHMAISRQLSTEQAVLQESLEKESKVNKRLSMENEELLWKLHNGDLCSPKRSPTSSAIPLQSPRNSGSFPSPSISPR
Put plainly: co-IP; lysates (IP buffer) of HNSCC cells transduced with lentivirus containing ATIP1-Flag; immunoprecipitation with an antibody against Flag or control IgG, Dynabeads Coimmunoprecipitation Kit; western blotting for MFN2 or TOMM20.

Results are given in words; binding and its absence hold for the method and conditions named. In cells and extracts the contact can be indirect. Tags and fused reporters may be left off the sequences shown.

On to TOMM20 (from UniProt Q15388 1-145), for which the binding entry was “no binding”.
